Measurements reported in PubChem BioAssay AID1224830 (NIAID, 2016).

Test: 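Host factors that control LPS-induced TNF expression in human macrophages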 (primary screen)
Cell system: human THP-1 monocytic leukaemia cells, TNF dual-luciferase reporter clone, PMA-differentiated to macrophage-like cells
Knock-down reagent: siRNA pool against human genes, 50 nM
Time to read-out: LPS for 4 h, given about 3 days after siRNA transfection
Challenge: bacterial LPS (TLR4 ligand), 10 ng/ml
Measured: 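TNF firefly reporter luminescence divided by renilla, normalised to the plate median, then turned into a robust z-score for each replicate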
Direction: TNF reporter robust z-score: higher = stronger TNF reporter response to LPS
Hit rule: 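Each well counts as active if its z-score is over 2.8 or under -1.5; controls are left without a call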
Here is a random part of about 18,000 reagents. About 2,900 of them (16%) were called active. 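Calls are made per well; low scores hint the gene aids the LPS response, high scores that it dampens it.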 Unmarked entries are inactive. The numbers tell different reagents against one gene apart. Repeated entries: four replicate wells of each siRNA pool. Reagent sequences are not shown.

For WDR77, how do the results read?
TNF reporter robust z-score: -0.9

What is on record for WDR77?
TNF reporter robust z-score: -1.02

How did the screen score WDR77?
TNF reporter robust z-score: -0.33

With WDR77, how do the results read?
TNF reporter robust z-score: -0.52

Which result is listed for TMCO2?
TNF reporter robust z-score: -0.89

What did the screen give for TMCO2?
TNF reporter robust z-score: -0.35

How did the screen score TMCO2?
TNF reporter robust z-score: 0.96

For TMCO2, what does the deposit list?
TNF reporter robust z-score: -0.27

Not a retest: an excerpt of the list.
WDR77 | TNF reporter robust z-score = -0.52
TMCO2 | TNF reporter robust z-score = -0.89

Next reagents follow.
For FXR1, what does the deposit list?
TNF reporter robust z-score: -0.84

What is on record for FXR1?
TNF reporter robust z-score: -0.78

With FXR1, what was measured?
TNF reporter robust z-score: 0.29

With FXR1, what does the deposit list?
TNF reporter robust z-score: -0.24

How did the screen score ARHGAP27 #1?
TNF reporter robust z-score: -0.46

With ARHGAP27 #1, what was measured?
TNF reporter robust z-score: 0.04

What did the screen give for ARHGAP27 #1?
TNF reporter robust z-score: -0.17

For ARHGAP27 #1, how do the results read?
TNF reporter robust z-score: 0.76

With ARHGAP27 #2, how do the results read?
TNF reporter robust z-score: -0.66

With ARHGAP27 #2, what was measured?
TNF reporter robust z-score: 0.13

For ARHGAP27 #2, what was measured?
TNF reporter robust z-score: -1.03

What did the screen give for ARHGAP27 #2?
TNF reporter robust z-score: -0.23
